Measurements: US20020037870A1
Results are given in words; binding and its absence hold for the method and conditions named. Binding seen in cells or lysates may run through a third protein. Some binding calls cover weakened binding; strength is not graded here. Sequences can lack the tags named with a protein.

Protein sequences, listed by entry. Tags and fused reporters are not part of them.
UniProt Q08999: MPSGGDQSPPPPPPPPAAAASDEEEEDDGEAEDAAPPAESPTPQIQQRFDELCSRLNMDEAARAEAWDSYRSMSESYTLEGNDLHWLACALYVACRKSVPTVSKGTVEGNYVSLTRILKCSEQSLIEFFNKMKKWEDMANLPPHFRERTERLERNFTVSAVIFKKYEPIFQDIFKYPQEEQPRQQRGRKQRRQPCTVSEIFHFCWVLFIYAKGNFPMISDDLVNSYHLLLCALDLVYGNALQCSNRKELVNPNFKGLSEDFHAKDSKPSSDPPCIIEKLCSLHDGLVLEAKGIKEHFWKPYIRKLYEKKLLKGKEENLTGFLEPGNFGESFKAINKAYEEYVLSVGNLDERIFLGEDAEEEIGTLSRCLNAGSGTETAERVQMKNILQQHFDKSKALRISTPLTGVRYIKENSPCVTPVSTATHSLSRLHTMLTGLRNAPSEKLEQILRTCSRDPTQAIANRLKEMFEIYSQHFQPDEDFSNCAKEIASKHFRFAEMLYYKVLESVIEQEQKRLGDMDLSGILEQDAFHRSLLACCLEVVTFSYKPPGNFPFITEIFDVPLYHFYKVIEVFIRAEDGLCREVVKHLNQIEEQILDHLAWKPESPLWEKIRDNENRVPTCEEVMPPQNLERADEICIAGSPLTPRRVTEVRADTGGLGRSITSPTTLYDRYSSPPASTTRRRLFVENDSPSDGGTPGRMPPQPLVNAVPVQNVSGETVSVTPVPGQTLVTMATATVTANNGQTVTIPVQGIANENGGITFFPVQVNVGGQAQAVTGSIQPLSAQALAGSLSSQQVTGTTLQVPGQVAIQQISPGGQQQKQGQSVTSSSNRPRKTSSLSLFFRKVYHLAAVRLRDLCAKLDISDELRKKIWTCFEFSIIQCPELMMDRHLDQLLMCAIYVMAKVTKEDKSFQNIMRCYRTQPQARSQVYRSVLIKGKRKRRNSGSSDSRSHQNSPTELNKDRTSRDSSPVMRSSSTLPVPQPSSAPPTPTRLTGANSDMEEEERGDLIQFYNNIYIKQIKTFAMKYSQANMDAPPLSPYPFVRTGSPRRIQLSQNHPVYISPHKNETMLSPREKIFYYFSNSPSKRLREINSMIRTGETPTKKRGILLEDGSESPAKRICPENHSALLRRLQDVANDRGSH

Biological target: T1, JCV TAg (JCV (human polyomavirus)) (UniProt P03072)
T1 sequence: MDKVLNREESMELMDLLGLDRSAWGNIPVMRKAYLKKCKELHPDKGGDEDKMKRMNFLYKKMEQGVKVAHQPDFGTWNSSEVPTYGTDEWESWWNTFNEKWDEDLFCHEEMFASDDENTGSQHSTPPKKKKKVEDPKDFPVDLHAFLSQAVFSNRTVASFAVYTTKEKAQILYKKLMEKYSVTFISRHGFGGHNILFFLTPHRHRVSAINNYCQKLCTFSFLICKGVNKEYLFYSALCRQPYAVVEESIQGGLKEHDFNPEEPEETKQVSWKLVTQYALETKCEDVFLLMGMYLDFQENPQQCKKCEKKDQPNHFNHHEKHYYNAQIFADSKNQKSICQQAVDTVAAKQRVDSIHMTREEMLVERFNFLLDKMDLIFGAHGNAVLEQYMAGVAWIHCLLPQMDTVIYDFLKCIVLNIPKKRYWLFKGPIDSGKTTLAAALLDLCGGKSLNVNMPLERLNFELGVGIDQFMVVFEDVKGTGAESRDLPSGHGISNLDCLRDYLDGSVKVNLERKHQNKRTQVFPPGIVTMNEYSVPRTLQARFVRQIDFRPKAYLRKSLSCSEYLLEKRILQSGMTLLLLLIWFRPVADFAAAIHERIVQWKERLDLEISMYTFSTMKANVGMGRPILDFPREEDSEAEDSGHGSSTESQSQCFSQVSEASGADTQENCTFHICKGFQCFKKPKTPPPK
Test: co-immunoprecipitation with anti-pRb2/p130 immune serum and Western blot with PAB 416, and the reverse, on HJC cell lysates

Substance: pRb2/p130 (from UniProt Q08999 1-1139)
- binding: binds
